Reference: patent US20250297255A1
Residue numbers refer to the chain shown, from its start. Results are given in words; binding and its absence hold for the method and conditions named. Some binding calls cover weakened binding; strength is not graded here.

Chains of the proteins cited; added tags and fusions are not shown. Lines headed by an entry give the natural chain unless they say otherwise; changes in a name come on top.
UniProt Q9NRS4: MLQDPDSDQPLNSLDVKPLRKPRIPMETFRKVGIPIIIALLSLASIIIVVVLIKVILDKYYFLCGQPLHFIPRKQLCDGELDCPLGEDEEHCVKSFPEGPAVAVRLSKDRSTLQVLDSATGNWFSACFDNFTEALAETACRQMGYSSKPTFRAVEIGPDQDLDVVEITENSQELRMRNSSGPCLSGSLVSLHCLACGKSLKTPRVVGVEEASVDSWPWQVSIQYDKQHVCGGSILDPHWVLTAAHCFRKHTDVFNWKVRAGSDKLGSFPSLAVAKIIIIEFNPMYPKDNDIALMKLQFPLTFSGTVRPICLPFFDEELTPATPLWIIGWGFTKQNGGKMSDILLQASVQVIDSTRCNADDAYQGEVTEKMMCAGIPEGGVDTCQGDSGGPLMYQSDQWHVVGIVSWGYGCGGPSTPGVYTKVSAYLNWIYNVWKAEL

B1: TMPRSS4 Ab73 scFv (VH-VL) (scFv)
scFv: EVQLLESGGGLVQPGGSLRLSCAASGFTFSSYAMHWVRQAPGKGLEWLAVISFDGSIRHYADSVKGRFTISRDNSKNTLYLQMNSLRAEDTAVYYCAKPKASSGPRLIDYWGQGTLVTVSSGGGGSGGGGSGGGGSDIQMTQSPSSLSASVGDRVTITCRASQGISNSLAWYQQKPGKAPKLLIYSAVNLQSGVPSRFSGSGSGTDFTLTISSLQPEDFATYYCQQANSFPLTFGGGTKVEIK
B2: SLC34A2 Ab 9 (antibody, human IgG1, kappa, V domains shown)
VH: QVQLVESGGGLVQPGRSLRLSCSGSGFTSGDYAVSWVRQAPGKGLEWVGFIRTKPYGETTEYAASVKGRFTISRDDSKSIAYLQMNSLKAEDTAVFYCTFIPVSRFLEWLPWGQGIPVTVSS
VL: DIQMTQSPSSLSAFVGDRVTITCRASQDIGNYLAWYQQTPEKVPKLLIYAASTLQSGVPSRFSGSGSGTDFTLTISSLQPEDVATYYCQNYYSVPWTFGQGTKVEIKR
B3: SLC34A2 Ab 10 (antibody, human IgG1, kappa, V domains shown)
VH: QVQLLESGGGLVQPGASLRLSCAASGFTFSTYAMTWVRQAPGKGLEWVSGINGGGDTTYYADSVKGRFTISRDNSKNTLYLQMNSLRAEDTAVYYCAVRGYTYGYFFDYWGQGTLVTVSS
VL: DIQMTQSPSSLSASVGDRVTITCRASQGISNYLAWYQQRPGKVPKLLIYAASTLRSGVPSRFSGSGSGTDFTLTISSLQPEDVATYYCQKYNSAPLTFGGGTKVEIKR
B4: SLC34A2 Ab 15 (antibody, human IgG1, kappa, V domains shown)
VH: QVQLQESGPGLVKPSETLSLTCTVSGGSVSSASYYWSWIRQPPGKGLEYIGYIYYSGSTYYNPSLKSRVTISIDTSKNQFSLNLRSVTAADTAVYYCARYIVGRPGFNWFDPWGQGTLVTVSS
VL: DIQMTQSPSSLSASVGDRVTITCRASQSISSYLNWYQQKPGKAPKFLISPASSLQSGVPSRFSGSGSGTDFTLTISSLQPEDFATYYCQQSYSIPWTFGQGTKVEIKR
B5: SLC34A2 Ab 16 (antibody, human IgG1, kappa, V domains shown)
VH: B4 VH with G27D, A32V, Y49W, Y54W, N83K
VL: B4 VL with S28T, F46L, S53N, S93I
B6: SLC34A2 Ab 5 (antibody, human IgG1, kappa, V domains shown)
VH: QVQLQESGPGLVKPSETLSLTCSVSGGSISSSSYYWGWIRQPPGKGLEWIGSIDYSGSTYYNPSLKSRVTISIDTSKNQFSLRLSSVTAAEKAVYYCARHGRGTIGYFDYWGQGTLVTVSS
VL: B4 VL with F46L, S49Y, P50A, Q55L, S56T, S63T, A84G, I94P, W96L, Q100G
B7: SLC34A2 Ab 6 (antibody, human IgG1, kappa, V domains shown)
VH: QVQLLESGGGLVQPGGSLRLSCAASGFTFSSSAMAWVRQAPGKGLEWVSAISSSGDNTYYADSVKGRFTISRDTSKNTLSLQMSSLRAEDTAIYYCAKQGTNWGLYFDYWGQGTLVTVSS
VL: B3 VL with T22A, G28V, R39K, A50V, R55Q, K90N, L96W, G100Q, V104L

Target: Human TMPRSS4 (Transmembrane protease, serine 4), wild type full length (human) (UniProt Q9NRS4)
Assay: flow cytometry, monoclonal phage on HEK293T-TMPRSS4 cells

binding, binds:
B1

Target: T1, SLC34A2 peptide fragment (peptide 1) (human)
T1 sequence (peptide, biotinylated (site not stated)): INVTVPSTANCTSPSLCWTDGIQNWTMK
Assay: ELISA, biotinylated antigen on NeutrAvidin plate, anti-human Fc-HRP

binding, binds:
B2, B3, B4, B5

Target: ECL-mFc fusion protein (human SLC34A2 ECL2 fused to murine Fc) (human)
Assay: as above

binding, binds:
B6, B7, B2, B3, B4, B5
